No constants are given. Whether binding was seen depends on the method and setting. In cells and extracts the contact can be indirect. Some binding calls cover weakened binding; strength is not graded here. Where a sequence is shown, tags or fusion partners need not be part of it.

Amino acid sequences for entries named in this document (tags omitted).
UniProt Q96D31: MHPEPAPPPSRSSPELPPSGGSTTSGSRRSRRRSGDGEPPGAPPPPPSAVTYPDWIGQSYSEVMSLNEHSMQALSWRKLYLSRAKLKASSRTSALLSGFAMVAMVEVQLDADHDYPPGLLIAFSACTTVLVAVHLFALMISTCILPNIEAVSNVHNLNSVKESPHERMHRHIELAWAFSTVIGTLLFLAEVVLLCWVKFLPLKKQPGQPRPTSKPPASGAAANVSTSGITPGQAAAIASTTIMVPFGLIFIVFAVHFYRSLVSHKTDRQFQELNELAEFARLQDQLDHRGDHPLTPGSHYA

We go through one molecule from PMC10190626.

The assay has as its target Flag-Myc-Orai1 (UniProt Q96D31). The assay can be described thus: co-IP; HEK293T cells co-transfected for 18 h; lysis in 20 mM Tris-HCl pH 7.4, 150 mM NaCl, 1% Triton X-100; supernatant incubated overnight at 4 °C with anti-Flag M2 agarose beads; immunoblot; cells with or without 50 µM FCF (SEPTIN inhibitor) and, for STIM1, with or without TG (1 µM). (In general: Immunoblotting shows a protein as a band on a membrane.)

B1: GFP-SEPT2 (protein, UniProt Q15019 1-361)
chain: MSKQQPTQFINPETPGYVGFANLPNQVHRKSVKKGFEFTLMVVGESGLGKSTLINSLFLTDLYPERVIPGAAEKIERTVQIEASTVEIEERGVKLRLTVVDTPGYGDAINCRDCFKTIISYIDEQFERYLHDESGLNRRHIIDNRVHCCFYFISPFGHGLKPLDVAFMKAIHNKVNIVPVIAKADTLTLKERERLKKRILDEIEEHNIKIYHLPDAESDEDEDFKEQTRLLKASIPFSVVGSNQLIEAKGKKVRGRLYPWGVVEVENPEHNDFLKLRTMLITHMQDLQEVTQDLHYENFRSERLKRGGRKVENEDMNKDQILLEKEAELRRMQEMIARMQAQMQMQMQGGDGDGGALGHHV
Take B1: the binding result is given as “binds”.
